Record: PubChem BioAssay AID1224826 (NIAID, 2016)

Assay: 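Genes that change LPS-induced Tnf promoter activity in mouse macrophages when knocked down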 (primary screen)
Cell system: RAW264.7 G9 macrophages from mouse bearing reporters for p65 (GFP) and the Tnf promoter (mCherry)
Knock-down reagent: siRNA pool against mouse genes, 100 nM
Duration: 16 h of LPS stimulation, after 2 days of siRNA transfection
Treatment: bacterial lipopolysaccharide (Salmonella minnesota R595), 10 ng/ml
Detection: 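Imaged Tnf reporter mCherry in nuclei, minus background, normalised per plate to the median and expressed as robust z-scores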
Direction: Tnf reporter robust z-score: higher = stronger Tnf promoter reporter signal after LPS; Tnf reporter intensity: higher = stronger Tnf promoter reporter signal
Active means: 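Called active when robust z-score is at most -1.3, matching the median of the Tlr4 knock-down control, or over 3; control wells and wells with under 50 cells never active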
Meaning of the calls: active = Tnf reporter clearly lowered or raised; inactive = no clear change in Tnf reporter
Shown is an unselected part of about 17,000 deposited reagents. In the full data, about 1,110 (6.6%) are marked active. 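Active means lowered or raised reporter signal; replicate intensities are raw and not normalised per plate.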 Entries without a mark were called inactive.

gene,Tnf reporter robust z-score,fewer than 50 cells in well,"Tnf reporter intensity, replicate 1","Tnf reporter intensity, replicate 2"
Txndc2 (thioredoxin domain containing 2 (spermatozoa)),-2.32 (active),enough cells in well,29.5,27.4
Hhip (Hedgehog-interacting protein),-0.76,enough cells in well,172,130
Irf7 (interferon regulatory factor 7),0.4,enough cells in well,293,156
Nek9 (NIMA (never in mitosis gene a)-related expressed kinase 9),-0.91,enough cells in well,150,112
"Fabp5 (fatty acid binding protein 5, epidermal)",0.48,enough cells in well,275,259
Fermt2 (fermitin family member 2),-1.16,enough cells in well,84.2,41.2
Rpusd2 (RNA pseudouridylate synthase domain containing 2),,fewer than 50 cells per well; well left out of calls,139,29.5
Or8g19 (olfactory receptor family 8 subfamily G member 19),0.18,enough cells in well,170,143
Gpx6 (glutathione peroxidase 6),-0.51,enough cells in well,201,138
Nisch (nischarin),-0.04,enough cells in well,202,134
"Pigo (phosphatidylinositol glycan anchor biosynthesis, class O)",0.19,enough cells in well,178,121
Capn6 (calpain 6),-0.97,enough cells in well,119,107
Or4x6 (olfactory receptor family 4 subfamily X member 6),2.92,enough cells in well,346,248
Krtap19-2 (keratin associated protein 19-2),0.12,enough cells in well,175,171
Gatb (glutamyl-tRNA amidotransferase subunit B),-1.01,enough cells in well,178,105
"Clec4b1 (C-type lectin domain family 4, member b1)",,fewer than 50 cells per well; well left out of calls,478,219
Mlxip (MLX interacting protein),-0.13,enough cells in well,143,148
Slc10a2,0.58,enough cells in well,300,147
Satb2 (special AT-rich sequence binding protein 2),-0.33,enough cells in well,136,91.7
Ifi47 (interferon gamma inducible protein 47),-1.04,enough cells in well,130,81.2
Hmg20a (high mobility group 20A),0.21,enough cells in well,212,239
"Plcz1 (phospholipase C, zeta 1)",-0.49,enough cells in well,116,101
Cdk3 (cyclin dependent kinase 3),-1.11,enough cells in well,105,108
Rcan2 (regulator of calcineurin 2),,fewer than 50 cells per well; well left out of calls,73.6,44.2

Entries above called active (1):
gene,Tnf reporter robust z-score,fewer than 50 cells in well,"Tnf reporter intensity, replicate 1","Tnf reporter intensity, replicate 2"
Txndc2 (thioredoxin domain containing 2 (spermatozoa)),-2.32 (active),enough cells in well,29.5,27.4
